{"source": "PubChem BioAssay AID1259405 (NCATS, 2018)", "test": "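Knock-downs that lift recombinant protein yield in hamster ovary cells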 (primary screen)", "cells": "Chinese hamster CHO-K1 ovary cells with stable secreted eGFP expression", "knock-down reagent": "single siRNA against mouse genes, 0.8 pmol siRNA per well (2 µl of 400 nM stock)", "timing": "3 days", "measurement": "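Percent of the per-plate non-targeting control median for intracellular GFP per well by laser scanning cytometry and for cell viability by ATP luminescence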", "reading the numbers": "GFP, % of control: higher = more GFP per well, higher productivity; viability (ATP), % of control: higher = more viable cells (more ATP)", "call rule": "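a knock-down is called active if GFP reaches 120% or more of non-targeting control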", "note": "Shown is an unselected part of about 50,000 reagents tested. Of all reagents, about 4,000 (8%) are marked active. 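Mouse siRNA library applied to hamster cells; one well for each siRNA.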 Reagents against one gene are numbered here."}
{"target gene":"Arhgap11a","reagent":1,"GFP, % of control":88.6,"viability (ATP), % of control":118,"Outcome":"inactive"}
{"target gene":"Arhgap11a","reagent":2,"GFP, % of control":106,"viability (ATP), % of control":105,"Outcome":"inactive"}
{"target gene":"Arhgap11a","reagent":3,"GFP, % of control":111,"viability (ATP), % of control":117,"Outcome":"inactive"}
{"target gene":"Fgf1","reagent":1,"GFP, % of control":80.6,"viability (ATP), % of control":77.3,"Outcome":"inactive"}
{"target gene":"Fgf1","reagent":2,"GFP, % of control":88,"viability (ATP), % of control":75.7,"Outcome":"inactive"}
{"target gene":"Fgf1","reagent":3,"GFP, % of control":91.1,"viability (ATP), % of control":112,"Outcome":"inactive"}
{"target gene":"Nmur1","reagent":1,"GFP, % of control":60.3,"viability (ATP), % of control":65.9,"Outcome":"inactive"}
{"target gene":"Nmur1","reagent":2,"GFP, % of control":64.1,"viability (ATP), % of control":67.9,"Outcome":"inactive"}
{"target gene":"Nmur1","reagent":3,"GFP, % of control":82.2,"viability (ATP), % of control":76.5,"Outcome":"inactive"}
{"target gene":"Slc16a8","reagent":1,"GFP, % of control":68.4,"viability (ATP), % of control":82.8,"Outcome":"inactive"}
{"target gene":"Slc16a8","reagent":2,"GFP, % of control":113,"viability (ATP), % of control":66.6,"Outcome":"inactive"}
{"target gene":"Slc16a8","reagent":3,"GFP, % of control":153,"viability (ATP), % of control":126,"Outcome":"active"}
{"target gene":"Or6z7","reagent":1,"GFP, % of control":126,"viability (ATP), % of control":90.2,"Outcome":"active"}
{"target gene":"Or6z7","reagent":2,"GFP, % of control":74.7,"viability (ATP), % of control":86.9,"Outcome":"inactive"}
{"target gene":"Or6z7","reagent":3,"GFP, % of control":108,"viability (ATP), % of control":85.6,"Outcome":"inactive"}
{"target gene":"Prss40","reagent":1,"GFP, % of control":71,"viability (ATP), % of control":100,"Outcome":"inactive"}
{"target gene":"Prss40","reagent":2,"GFP, % of control":76,"viability (ATP), % of control":96,"Outcome":"inactive"}
{"target gene":"Prss40","reagent":3,"GFP, % of control":123,"viability (ATP), % of control":89.7,"Outcome":"active"}
{"target gene":"Htra2","reagent":1,"GFP, % of control":52,"viability (ATP), % of control":29.2,"Outcome":"inactive"}
{"target gene":"Htra2","reagent":2,"GFP, % of control":90.3,"viability (ATP), % of control":59.9,"Outcome":"inactive"}
{"target gene":"Htra2","reagent":3,"GFP, % of control":87,"viability (ATP), % of control":70,"Outcome":"inactive"}
{"target gene":"Slc25a42","reagent":1,"GFP, % of control":136,"viability (ATP), % of control":65.4,"Outcome":"active"}
{"target gene":"Slc25a42","reagent":2,"GFP, % of control":94.9,"viability (ATP), % of control":64.1,"Outcome":"inactive"}
{"target gene":"Slc25a42","reagent":3,"GFP, % of control":59.2,"viability (ATP), % of control":70.4,"Outcome":"inactive"}
{"target gene":"Med17","reagent":1,"GFP, % of control":90.8,"viability (ATP), % of control":87.3,"Outcome":"inactive"}
{"target gene":"Med17","reagent":2,"GFP, % of control":78.9,"viability (ATP), % of control":75.3,"Outcome":"inactive"}
{"target gene":"Mmp28","reagent":1,"GFP, % of control":47.2,"viability (ATP), % of control":64.7,"Outcome":"inactive"}
{"target gene":"Mmp28","reagent":2,"GFP, % of control":59.7,"viability (ATP), % of control":62.1,"Outcome":"inactive"}
{"target gene":"Mmp28","reagent":3,"GFP, % of control":88.8,"viability (ATP), % of control":66.6,"Outcome":"inactive"}
{"target gene":"Rbm6","reagent":1,"GFP, % of control":124,"viability (ATP), % of control":140,"Outcome":"active"}
{"target gene":"Rbm6","reagent":2,"GFP, % of control":65.3,"viability (ATP), % of control":85.7,"Outcome":"inactive"}
{"target gene":"Cxcl5","reagent":1,"GFP, % of control":50.9,"viability (ATP), % of control":55,"Outcome":"inactive"}
{"target gene":"Cxcl5","reagent":2,"GFP, % of control":88.7,"viability (ATP), % of control":64.5,"Outcome":"inactive"}
{"target gene":"Or4k5","reagent":1,"GFP, % of control":157,"viability (ATP), % of control":58.9,"Outcome":"active"}
{"target gene":"Or4k5","reagent":2,"GFP, % of control":46.9,"viability (ATP), % of control":31,"Outcome":"inactive"}
{"target gene":"Or4k5","reagent":3,"GFP, % of control":69.9,"viability (ATP), % of control":105,"Outcome":"inactive"}
{"target gene":"Cd19","reagent":1,"GFP, % of control":43.2,"viability (ATP), % of control":98.2,"Outcome":"inactive"}
{"target gene":"Cd19","reagent":2,"GFP, % of control":94.1,"viability (ATP), % of control":88.6,"Outcome":"inactive"}
{"target gene":"Cd19","reagent":3,"GFP, % of control":116,"viability (ATP), % of control":115,"Outcome":"inactive"}
{"target gene":"Smc1b","reagent":1,"GFP, % of control":105,"viability (ATP), % of control":111,"Outcome":"inactive"}
{"target gene":"Smc1b","reagent":2,"GFP, % of control":77.9,"viability (ATP), % of control":84.4,"Outcome":"inactive"}

Records listed so far whose gene name starts with N or n (3):
{"target gene":"Nmur1","reagent":1,"GFP, % of control":60.3,"viability (ATP), % of control":65.9,"Outcome":"inactive"}
{"target gene":"Nmur1","reagent":2,"GFP, % of control":64.1,"viability (ATP), % of control":67.9,"Outcome":"inactive"}
{"target gene":"Nmur1","reagent":3,"GFP, % of control":82.2,"viability (ATP), % of control":76.5,"Outcome":"inactive"}
